# Inconclusive results, whose numbers are uncertain, are shown with a selection of clear calls. Potencies of inconclusive entries are doubtful fits and often do not repeat. Activity calls are given as the source filed them. How the source made its calls: active means hit-call score of the fitted dose curve at least 0.9, where 1 is the maximum; inconclusive means response in the unintended direction; inactive means score below 0.9.
# Chains of the proteins cited; added tags and fusions are not shown.
# UniProt P04637, whole entry, looked up: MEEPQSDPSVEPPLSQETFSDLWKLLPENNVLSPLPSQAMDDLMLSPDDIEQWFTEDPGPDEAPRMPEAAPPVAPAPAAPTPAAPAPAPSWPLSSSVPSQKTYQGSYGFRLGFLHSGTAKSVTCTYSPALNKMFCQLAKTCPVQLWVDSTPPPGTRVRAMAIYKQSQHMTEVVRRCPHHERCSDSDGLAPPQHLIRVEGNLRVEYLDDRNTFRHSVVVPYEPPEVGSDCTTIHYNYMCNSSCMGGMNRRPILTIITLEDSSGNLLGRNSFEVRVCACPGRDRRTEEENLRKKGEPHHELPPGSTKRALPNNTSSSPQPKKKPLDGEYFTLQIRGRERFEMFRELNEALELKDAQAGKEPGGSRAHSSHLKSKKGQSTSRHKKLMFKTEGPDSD
# System: not listed separately
# Assay: TOX21_p53_BLA_p5_viability: Viability Assessment in the Tox21 HCT-116 p53 Agonism Beta-lactamase Assay, Phase 5 (AID 2283600)
# How it was run: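 Here cell health was gauged by ATP levels in wells holding 4000 cells, each treated 16 h with DMSO-delivered compounds at 217-fold dilution; reduced luminescence marked toxicity.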
Compound,outcome,AC50
O=[N+]([O-])c1cccc(I)c1,inactive,–
CCOC(=O)c1c(N)sc2c1CCN(Cc1ccccc1)C2,inactive,–
CCCCCCCCCCCCCCN(C)C,–,inconclusive: 11.6 µM
CCN(CC)CCNC(=O)COc1ccc(Cl)cc1,–,inconclusive: 5.65 µM
Cc1cc(C(C)(C)C)cc(C)c1CC1=NCCN1,inactive,–
CCCCCCOC(=O)c1cccnc1,inactive,–
CO/N=C(\C(=O)N[C@@H]1C(=O)N2C(C(=O)[O-])=C(C[n+]3cccc4c3CCC4)CS[C@H]12)c1csc(N)n1,inactive,–
COc1ccc2cc1Oc1cc3c(cc1OC)CC[N+](C)(C)[C@H]3Cc1ccc(cc1)Oc1c(OC)c(OC)cc3c1[C@@H](C2)[N+](C)(C)CC3,–,inconclusive: 23 µM
Cc1cc(S(=O)(=O)O)c(N)cc1Cl,inactive,–
CC(N)C12CC3CC(CC(C3)C1)C2 (stereo unspecified),inactive,–

# Target: Cellular tumor antigen p53 (Homo sapiens) (UniProt P04637)
# Assay: TOX21_p53_BLA_p4_ratio: Tox21 HCT-116 p53 Agonism Beta-lactamase Assay, Ratio, Phase 4 (AID 2283601)
# How it was run: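 HCT-116 p53 beta-lactamase reporter cells (4000/well) preincubated 5 h, then compound (217-fold dilution of DMSO stock) for 16 h at 37C. CCF4-AM substrate added 2 h at room temperature; 460/530 nm emission ratio fitted upward versus DMSO.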
Compound,outcome,AC50
COc1ccc2nc(NC(=O)Nc3ccccc3)sc2c1,inactive,–
CC(C)(C)c1cc(CO)cc(C(C)(C)C)c1O,–,inconclusive: 46.8 µM
CC(=O)Oc1ccc2c(c1)CC[C@@H]1[C@@H]2CC[C@]2(C)[C@@H](O)CC[C@@H]12,inactive,–
Nc1nnnn1-c1ccccc1,–,inconclusive: 23 µM
C[N+]1(C)CCC(=C(c2ccccc2)c2ccccc2)CC1,–,inconclusive: 10.3 µM
O=C(OOC(=O)c1ccccc1)c1ccccc1,inactive,–
Cc1cc(O)c2c(c1)C(=O)c1cccc(O)c1C2=O,inactive,–
Cc1occc1SSc1ccoc1C,–,inconclusive: 46.1 µM
CC1=NS(=O)(=O)c2cc(Cl)ccc2N1,–,inconclusive: 23 µM
CO[C@@H]1[C@@H](O[C@@H]2O[C@H](C)[C@@H](O[C@H]3C[C@](C)(O)[C@@H](O)[C@H](C)O3)[C@H](N(C)C)[C@H]2O)[C@H](CC=O)C[C@@H](C)[C@H](O[C@H]2CC[C@H](N(C)C)[C@@H](C)O2)/C=C\C=C\C[C@@H](C)OC(=O)C[C@H]1O,–,inconclusive: 10.3 µM
CCCCCCCCCCCCCCN(C)C,–,inconclusive: 2.3 µM
CCCCC(CC)COC(=O)COc1ccc(Cl)cc1C (stereo unspecified),–,inconclusive: 46.1 µM
CC(=O)OC(C)C[N+](C)(C)C (stereo unspecified),–,inconclusive: 10.3 µM
C=CCn1c(=O)n(CC=C)c(=O)n(CC=C)c1=O,–,inconclusive: 46 µM
COc1ccc2c(=O)c(C)c(-c3ccccc3)oc2c1CN(C)C,–,inconclusive: 23 µM
Cc1cc(S(=O)(=O)O)c(N)cc1Cl,inactive,–

# From PubChem BioAssay (EPA / NIEHS)
